Laboratory results from paper PMC10739977.

Sequences of proteins named here, by UniProt entry; tags and fusion partners are left off.
UniProt Q63528: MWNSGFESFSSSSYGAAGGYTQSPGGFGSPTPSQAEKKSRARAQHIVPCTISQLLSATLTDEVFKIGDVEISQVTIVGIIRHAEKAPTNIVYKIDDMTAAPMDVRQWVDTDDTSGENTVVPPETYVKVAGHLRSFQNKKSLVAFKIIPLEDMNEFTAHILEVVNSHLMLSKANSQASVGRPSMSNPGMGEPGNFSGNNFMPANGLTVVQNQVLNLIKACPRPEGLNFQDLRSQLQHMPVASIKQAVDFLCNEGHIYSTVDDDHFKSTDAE

B1: SmarcAL1 (SWI/SNF-related matrix-associated actin-dependent regulator of chromatin subfamily A-like protein 1) (protein, UniProt B4F769 1-910)
chain: MSLPLTEEQRKKIEENRQKALARRAEKLWAEQPQSTASGSSAARPSQCKQNSLLNLPAEPSKPEGHATISKGQNLNNSLPAAQRPHSSPCFQPSTAEEAKGLWKSEGKMSAACPNPSPPEVSNQQLLGSKSSEGHPQATQDTAASCPRPFPRDPKLEAKAGRPSTSGQSISDTFYALGEKTPKTDGRPAKALQTSPQKASCLRGMCLRTGDRFRVKIGYNKELIEVFKSLPSRRYDSFTKTWDFSMSDYRALMKAVERLSTVSLQPLEEVDGTGGQTSLPSAPSLTFVTGRCMLISRARFEVDIGYSEVVIALFKQMESRNYDPKTRKWNFLLEEHNKLIARSRELKQVQLDPLPKTLTLAFASQLEKTSLQSKADVPEADLSGVDAKLVSNLMPFQREGVSFAISKRGRLLLADDMGLGKTIQAICIAAFYRKEWPLLVVVPSSVRFTWEQAFLRWLPSLSPEDINVVVTGKGRLTAGLVNIVSFDLLSKLEKQLKTPFKVVIIDESHFLKNIKTARCRAAVPILKVAKRVILLSGTPAMSRPAELYTQIIAVKPTFFPQFHAFGLRYCDAKRLPWGWDYSGSSNLGELKLLLEEAVMLRRLKSDVLSQLPAKQRKMVVVNPGRISTRAKAALDAAAKEMTKDKTKQQQKEALLVFFNRTAEAKIPCVIEYILDLLESGREKFLVFAHHKVLLDAIAKELERKNVQHIRIDGSTPSADREDLCQQFQLSKGHTVAVLSITAANMGLTFSSADLVVFAELFWNPGVLIQAEDRVHRIGQTNSVGIHYLVAKGTADDYLWPLIQEKIKVLGEAGLSETNFSEMTEATDYLYKDPKQKTIYSLFQQSFEDDGNDMEFLEAAESFELGSTSGTSGNSSQELGDITDENALADSPPKKRRFEFFDNWDSFTSPF

Biological target: T1, Fc-tagged human Angptl3 (human) (UniProt Q9Y5C1)
T1 sequence: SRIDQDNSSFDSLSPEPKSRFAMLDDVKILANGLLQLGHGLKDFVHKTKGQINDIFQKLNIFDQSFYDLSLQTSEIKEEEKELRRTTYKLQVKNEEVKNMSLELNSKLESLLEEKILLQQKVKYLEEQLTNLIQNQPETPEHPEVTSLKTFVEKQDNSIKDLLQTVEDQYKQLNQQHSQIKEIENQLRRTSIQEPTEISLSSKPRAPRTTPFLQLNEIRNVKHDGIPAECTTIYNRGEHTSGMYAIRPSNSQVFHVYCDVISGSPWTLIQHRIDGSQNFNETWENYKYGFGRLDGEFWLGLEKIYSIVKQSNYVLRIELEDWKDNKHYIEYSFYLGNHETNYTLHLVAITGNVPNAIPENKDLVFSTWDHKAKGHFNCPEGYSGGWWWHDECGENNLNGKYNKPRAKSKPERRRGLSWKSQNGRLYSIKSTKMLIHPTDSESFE
Test: affinity purification with mass spectrometry; SILAC; extracts (about 4 mg) of light-labelled Fc and heavy-labelled Fc-Angptl3 McA cells incubated with protein-A beads at 4 °C overnight; lysis buffer 50 mM Tris-HCl pH 7.8, 150 mM NaCl, 1% NP-40, 0.1% sodium deoxycholate, 1 mM EDTA; two replicates

Molecule | binding
RPA2 (from UniProt Q63528 1-270) | binds
B1 | binds

These are yes or no findings as the source states them, for the method shown. In cells and extracts the contact can be indirect. A yes stands for co-enrichment or nearness to the bait. Other partners may have been found. Sequences can lack the tags named with a protein.
